Measurements reported in paper PMC3667834.
No constants are given. Whether binding was seen depends on the method and setting.

Molecular target: T1, OsMKK6 (Oryza sativa (indica rice, cultivar Pusa Basmati 1)) (UniProt Q5QN75)
T1 sequence: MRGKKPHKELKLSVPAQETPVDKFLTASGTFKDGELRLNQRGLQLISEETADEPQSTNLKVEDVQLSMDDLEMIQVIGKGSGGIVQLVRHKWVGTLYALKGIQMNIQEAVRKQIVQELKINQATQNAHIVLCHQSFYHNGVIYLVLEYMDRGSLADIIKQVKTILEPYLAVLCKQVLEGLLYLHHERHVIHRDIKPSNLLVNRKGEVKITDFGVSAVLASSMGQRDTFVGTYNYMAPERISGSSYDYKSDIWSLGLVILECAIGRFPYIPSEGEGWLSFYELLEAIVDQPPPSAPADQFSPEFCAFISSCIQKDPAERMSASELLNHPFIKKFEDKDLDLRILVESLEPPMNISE
Experiment: two-hybrid; Matchmaker system, yeast AH109; MAPKK fused to GAL4 DNA-binding domain (pGBKT7) as bait, MAPK fused to GAL4 activation domain (pGADT7) as prey; co-transformants selected on SD/-Leu/-Trp, interaction read as growth on SD/-Ade/-His/-Leu/-Trp

- binding: no binding
B1: OsMPK3 (enzyme, UniProt A2XFC8 1-369)
chain: MDGAPVAEFRPTMTHGGRYLLYDIFGNKFEVTNKYQPPIMPIGRGAYGIVCSVMNFETREMVAIKKIANAFNNDMDAKRTLREIKLLRHLDHENIIGIRDVIPPPIPQAFNDVYIATELMDTDLHHIIRSNQELSEEHCQYFLYQILRGLKYIHSANVIHRDLKPSNLLLNANCDLKICDFGLARPSSESDMMTEYVVTRWYRAPELLLNSTDYSAAIDVWSVGCIFMELINRQPLFPGRDHMHQMRLITEVIGTPTDDELGFIRNEDARKYMRHLPQYPRRTFASMFPRVQPAALDLIERMLTFNPLQRITVEEALDHPYLERLHDIADEPICLEPFSFDFEQKALNEDQMKQLIFNEAIEMNPNIRY
